# Some of the results follow.
# Sequences of proteins named here, by UniProt entry; tags and fusion partners are left off. A change or cut given only in a name is not applied to a line headed by its entry.
# UniProt Q86VY4: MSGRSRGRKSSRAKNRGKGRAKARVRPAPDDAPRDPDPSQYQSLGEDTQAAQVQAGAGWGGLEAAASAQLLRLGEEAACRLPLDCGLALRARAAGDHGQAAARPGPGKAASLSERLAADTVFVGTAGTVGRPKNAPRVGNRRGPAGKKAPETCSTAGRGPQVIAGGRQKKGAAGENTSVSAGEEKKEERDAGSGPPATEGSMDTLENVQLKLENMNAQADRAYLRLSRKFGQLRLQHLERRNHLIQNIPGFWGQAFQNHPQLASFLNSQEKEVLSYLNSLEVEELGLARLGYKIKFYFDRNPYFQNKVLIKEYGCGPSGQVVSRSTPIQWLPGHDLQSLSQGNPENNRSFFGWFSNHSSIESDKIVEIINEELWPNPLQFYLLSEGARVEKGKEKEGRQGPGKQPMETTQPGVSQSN
# UniProt Q9Y4A5, whole entry, looked up: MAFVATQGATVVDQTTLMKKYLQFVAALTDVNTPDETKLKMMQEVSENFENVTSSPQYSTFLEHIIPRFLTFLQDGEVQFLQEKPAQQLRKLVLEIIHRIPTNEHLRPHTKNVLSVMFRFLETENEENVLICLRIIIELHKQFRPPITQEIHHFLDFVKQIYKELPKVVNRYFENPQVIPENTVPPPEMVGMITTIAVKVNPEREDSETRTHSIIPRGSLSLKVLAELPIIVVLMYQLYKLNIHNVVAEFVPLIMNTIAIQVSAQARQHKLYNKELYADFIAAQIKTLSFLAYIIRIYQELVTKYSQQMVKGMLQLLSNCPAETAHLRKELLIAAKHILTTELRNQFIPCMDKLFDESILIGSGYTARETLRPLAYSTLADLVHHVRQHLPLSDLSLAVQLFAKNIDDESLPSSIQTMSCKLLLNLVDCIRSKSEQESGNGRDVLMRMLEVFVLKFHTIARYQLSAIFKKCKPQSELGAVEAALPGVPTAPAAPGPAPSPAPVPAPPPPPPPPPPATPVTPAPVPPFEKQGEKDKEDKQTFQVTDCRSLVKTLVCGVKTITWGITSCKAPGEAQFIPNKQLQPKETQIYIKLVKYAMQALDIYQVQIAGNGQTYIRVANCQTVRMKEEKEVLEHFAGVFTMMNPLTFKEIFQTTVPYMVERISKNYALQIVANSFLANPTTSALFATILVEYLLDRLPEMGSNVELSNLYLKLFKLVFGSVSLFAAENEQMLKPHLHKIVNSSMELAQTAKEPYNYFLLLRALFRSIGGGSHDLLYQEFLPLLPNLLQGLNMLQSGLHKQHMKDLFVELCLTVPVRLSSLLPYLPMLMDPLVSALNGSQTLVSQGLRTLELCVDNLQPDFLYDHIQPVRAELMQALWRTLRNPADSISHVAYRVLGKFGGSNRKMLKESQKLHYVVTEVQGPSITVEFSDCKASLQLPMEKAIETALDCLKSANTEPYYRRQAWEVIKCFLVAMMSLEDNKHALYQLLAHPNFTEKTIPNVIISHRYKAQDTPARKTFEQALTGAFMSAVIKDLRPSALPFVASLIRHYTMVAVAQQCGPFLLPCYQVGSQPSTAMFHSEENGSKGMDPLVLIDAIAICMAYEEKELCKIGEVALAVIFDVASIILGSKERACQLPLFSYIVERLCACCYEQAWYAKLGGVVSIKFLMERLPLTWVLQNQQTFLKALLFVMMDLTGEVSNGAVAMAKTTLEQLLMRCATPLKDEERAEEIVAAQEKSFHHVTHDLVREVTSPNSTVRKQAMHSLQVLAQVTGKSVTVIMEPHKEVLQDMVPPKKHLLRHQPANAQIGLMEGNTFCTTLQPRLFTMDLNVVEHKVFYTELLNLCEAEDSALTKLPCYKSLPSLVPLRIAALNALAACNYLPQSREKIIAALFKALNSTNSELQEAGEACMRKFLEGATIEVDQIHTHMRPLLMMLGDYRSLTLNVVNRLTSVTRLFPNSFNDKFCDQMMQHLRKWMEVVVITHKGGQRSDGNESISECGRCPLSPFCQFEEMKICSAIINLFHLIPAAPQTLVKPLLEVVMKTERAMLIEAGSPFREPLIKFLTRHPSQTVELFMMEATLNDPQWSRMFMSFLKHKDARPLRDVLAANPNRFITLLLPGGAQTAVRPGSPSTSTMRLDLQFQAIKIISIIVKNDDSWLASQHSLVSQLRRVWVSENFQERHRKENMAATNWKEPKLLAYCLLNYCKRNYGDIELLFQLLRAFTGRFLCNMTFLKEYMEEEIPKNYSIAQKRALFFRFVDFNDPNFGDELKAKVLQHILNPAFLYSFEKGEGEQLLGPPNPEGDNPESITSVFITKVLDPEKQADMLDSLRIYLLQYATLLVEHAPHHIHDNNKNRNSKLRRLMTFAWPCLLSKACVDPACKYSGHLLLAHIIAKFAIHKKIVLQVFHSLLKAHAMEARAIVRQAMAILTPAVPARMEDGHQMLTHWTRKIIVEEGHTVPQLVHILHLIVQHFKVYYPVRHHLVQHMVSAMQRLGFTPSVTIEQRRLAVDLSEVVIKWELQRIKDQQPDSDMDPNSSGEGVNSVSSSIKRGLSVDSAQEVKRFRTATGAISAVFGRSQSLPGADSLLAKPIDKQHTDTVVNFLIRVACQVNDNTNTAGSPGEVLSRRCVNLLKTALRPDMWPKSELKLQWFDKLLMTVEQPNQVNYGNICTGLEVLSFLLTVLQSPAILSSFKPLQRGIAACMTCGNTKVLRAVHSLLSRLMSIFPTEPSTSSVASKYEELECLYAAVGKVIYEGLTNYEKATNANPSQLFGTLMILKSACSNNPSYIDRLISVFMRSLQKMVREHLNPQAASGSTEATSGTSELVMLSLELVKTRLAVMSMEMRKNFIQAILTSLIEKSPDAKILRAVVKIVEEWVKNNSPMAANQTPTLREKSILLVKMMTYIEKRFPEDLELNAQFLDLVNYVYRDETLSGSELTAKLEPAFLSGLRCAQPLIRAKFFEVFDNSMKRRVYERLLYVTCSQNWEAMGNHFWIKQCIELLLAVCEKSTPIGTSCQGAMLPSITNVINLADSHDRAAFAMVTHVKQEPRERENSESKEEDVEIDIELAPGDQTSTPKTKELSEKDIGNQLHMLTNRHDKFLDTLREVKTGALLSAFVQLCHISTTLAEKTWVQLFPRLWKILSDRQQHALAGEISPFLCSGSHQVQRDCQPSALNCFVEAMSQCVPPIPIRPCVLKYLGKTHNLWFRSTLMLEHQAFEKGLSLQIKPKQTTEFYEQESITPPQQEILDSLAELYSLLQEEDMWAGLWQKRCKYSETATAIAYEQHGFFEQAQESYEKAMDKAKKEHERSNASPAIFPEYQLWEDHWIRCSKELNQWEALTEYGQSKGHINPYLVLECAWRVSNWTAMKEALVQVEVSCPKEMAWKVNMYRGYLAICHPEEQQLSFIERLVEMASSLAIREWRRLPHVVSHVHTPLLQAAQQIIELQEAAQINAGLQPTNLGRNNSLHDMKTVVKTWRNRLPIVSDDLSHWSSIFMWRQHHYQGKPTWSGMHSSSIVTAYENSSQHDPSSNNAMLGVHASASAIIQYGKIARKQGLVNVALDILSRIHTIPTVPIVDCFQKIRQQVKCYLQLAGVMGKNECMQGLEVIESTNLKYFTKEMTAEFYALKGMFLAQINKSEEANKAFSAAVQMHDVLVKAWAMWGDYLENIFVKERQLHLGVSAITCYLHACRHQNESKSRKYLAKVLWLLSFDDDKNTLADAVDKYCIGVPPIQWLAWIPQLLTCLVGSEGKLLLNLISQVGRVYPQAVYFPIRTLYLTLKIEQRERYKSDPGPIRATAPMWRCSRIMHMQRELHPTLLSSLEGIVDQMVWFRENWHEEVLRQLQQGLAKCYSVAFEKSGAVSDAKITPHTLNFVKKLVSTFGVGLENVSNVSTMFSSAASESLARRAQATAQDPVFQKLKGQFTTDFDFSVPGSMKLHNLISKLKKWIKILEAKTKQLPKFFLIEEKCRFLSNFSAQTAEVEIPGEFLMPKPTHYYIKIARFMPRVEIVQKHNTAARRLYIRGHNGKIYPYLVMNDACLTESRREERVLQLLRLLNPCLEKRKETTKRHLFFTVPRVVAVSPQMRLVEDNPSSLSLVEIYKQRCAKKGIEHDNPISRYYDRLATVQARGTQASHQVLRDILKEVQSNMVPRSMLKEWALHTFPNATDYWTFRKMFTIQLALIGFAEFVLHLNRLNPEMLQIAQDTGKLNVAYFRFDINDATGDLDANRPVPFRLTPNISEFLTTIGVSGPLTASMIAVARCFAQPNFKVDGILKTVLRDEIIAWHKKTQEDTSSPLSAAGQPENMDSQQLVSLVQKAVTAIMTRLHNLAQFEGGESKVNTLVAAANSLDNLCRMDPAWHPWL
# UniProt Q13630: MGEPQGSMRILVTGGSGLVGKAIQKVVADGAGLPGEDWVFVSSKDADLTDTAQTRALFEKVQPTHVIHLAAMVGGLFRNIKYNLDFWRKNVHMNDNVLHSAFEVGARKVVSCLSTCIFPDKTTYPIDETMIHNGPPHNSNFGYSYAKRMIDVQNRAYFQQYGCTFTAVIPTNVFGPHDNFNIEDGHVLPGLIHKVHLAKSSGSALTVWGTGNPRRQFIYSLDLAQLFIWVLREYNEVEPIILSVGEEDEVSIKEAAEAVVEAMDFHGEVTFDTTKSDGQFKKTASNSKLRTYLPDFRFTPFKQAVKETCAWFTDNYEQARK
# UniProt Q14166: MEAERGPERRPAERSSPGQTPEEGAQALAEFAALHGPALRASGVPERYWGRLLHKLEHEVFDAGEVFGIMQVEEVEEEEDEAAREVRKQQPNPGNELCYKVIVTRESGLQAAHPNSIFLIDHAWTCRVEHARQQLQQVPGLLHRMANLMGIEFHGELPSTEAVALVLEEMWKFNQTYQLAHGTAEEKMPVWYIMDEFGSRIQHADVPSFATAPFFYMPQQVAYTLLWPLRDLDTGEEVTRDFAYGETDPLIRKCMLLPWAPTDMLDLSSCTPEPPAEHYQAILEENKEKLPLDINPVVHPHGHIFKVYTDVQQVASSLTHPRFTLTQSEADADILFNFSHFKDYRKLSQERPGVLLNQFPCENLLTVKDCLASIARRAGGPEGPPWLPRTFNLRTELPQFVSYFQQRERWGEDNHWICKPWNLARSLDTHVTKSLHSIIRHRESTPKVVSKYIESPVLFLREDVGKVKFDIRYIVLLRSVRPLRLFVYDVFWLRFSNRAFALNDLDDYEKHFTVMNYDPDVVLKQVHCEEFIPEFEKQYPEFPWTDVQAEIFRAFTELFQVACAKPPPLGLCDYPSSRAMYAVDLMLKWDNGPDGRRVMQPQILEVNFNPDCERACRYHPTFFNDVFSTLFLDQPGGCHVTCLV
# UniProt Q99757: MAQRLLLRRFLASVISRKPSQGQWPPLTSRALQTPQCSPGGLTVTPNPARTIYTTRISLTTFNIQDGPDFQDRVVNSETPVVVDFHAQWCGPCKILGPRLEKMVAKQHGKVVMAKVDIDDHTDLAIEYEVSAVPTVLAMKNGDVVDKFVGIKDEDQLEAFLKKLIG
# UniProt Q9Y3Q8: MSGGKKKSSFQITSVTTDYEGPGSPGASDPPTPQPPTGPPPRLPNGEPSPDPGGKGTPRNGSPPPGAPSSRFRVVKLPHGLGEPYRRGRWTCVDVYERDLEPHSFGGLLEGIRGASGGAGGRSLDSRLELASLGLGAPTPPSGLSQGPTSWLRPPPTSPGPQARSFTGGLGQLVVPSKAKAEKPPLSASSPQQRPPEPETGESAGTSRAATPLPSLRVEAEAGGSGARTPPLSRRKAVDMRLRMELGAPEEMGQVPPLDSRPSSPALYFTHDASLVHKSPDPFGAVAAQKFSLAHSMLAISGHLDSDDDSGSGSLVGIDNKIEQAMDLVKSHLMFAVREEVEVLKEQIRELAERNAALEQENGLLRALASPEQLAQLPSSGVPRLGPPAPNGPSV
# UniProt Q8IZ69: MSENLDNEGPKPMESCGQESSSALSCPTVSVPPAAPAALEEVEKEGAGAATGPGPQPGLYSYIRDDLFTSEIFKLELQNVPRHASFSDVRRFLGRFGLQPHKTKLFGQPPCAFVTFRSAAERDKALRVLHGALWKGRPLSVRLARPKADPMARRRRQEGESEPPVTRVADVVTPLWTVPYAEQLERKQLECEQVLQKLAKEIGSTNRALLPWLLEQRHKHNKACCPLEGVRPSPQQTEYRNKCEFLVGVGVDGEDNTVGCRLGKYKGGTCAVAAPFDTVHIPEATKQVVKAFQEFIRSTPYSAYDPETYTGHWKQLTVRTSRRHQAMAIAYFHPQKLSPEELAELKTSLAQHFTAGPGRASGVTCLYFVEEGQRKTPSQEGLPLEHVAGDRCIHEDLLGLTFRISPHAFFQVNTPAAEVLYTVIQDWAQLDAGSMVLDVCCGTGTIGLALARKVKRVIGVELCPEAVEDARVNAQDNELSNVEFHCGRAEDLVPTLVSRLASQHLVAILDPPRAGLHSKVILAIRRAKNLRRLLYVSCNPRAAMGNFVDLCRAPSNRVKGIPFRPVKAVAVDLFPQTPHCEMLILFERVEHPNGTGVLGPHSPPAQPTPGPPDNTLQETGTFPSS
# UniProt Q9BRA2: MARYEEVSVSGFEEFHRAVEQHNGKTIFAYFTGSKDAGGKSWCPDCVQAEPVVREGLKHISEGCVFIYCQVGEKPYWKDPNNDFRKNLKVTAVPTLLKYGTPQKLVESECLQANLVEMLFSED
# Compound: Cc1cc(ccc1-c1ccccc1)C(=O)N1CCCN(CC1)C(=O)CCl [compound 10]
# Experiment: probe-labelled cysteine peptide fold change vs DMSO (competition) (log2 fold change); higher = less target engagement (more negative = stronger competition)
# Details: THP-1, incubation time: 4 h
# 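Also: competitive profiling in live THP-1 cells: cysteine peptides tagged with an iodoacetamide desthiobiotin (IA-DTB) probe, intensity after compound treatment relative to DMSO-treated cells.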
Target,probe-labelled cysteine peptide fold change (10 µM),probe-labelled cysteine peptide fold change (50 µM)
TXNDC11_Q6PKC3_815_ECLQSEAVLQR (UniProt Q6PKC3),-0.265,-0.101
TUFM_P49411_290_GDECELLGHSK (UniProt P49411),-0.02,-0.0434
TUBGCP6_Q96RT7_640_DCAVYVGR (UniProt Q96RT7),0.137,0.0858
TSPYL5_Q86VY4_153_KAPETCSTAGR (UniProt Q86VY4),-0.083,-0.28
TSFM_P43897_71_ALETCGGDLK (UniProt P43897),0.0543,-0.0953
TTC26_A0AVF1_227_ACNHFR,0.0383,-0.0175
TUFM_P49411_290_KGDECELLGHSK (UniProt P49411),-0.121,-0.0683
TSPO_P30536_19_APPWVPAMGFTLAPSLGCFVGSR (UniProt P30536),-0.0462,-0.132
TUBGCP3_Q96CW5_388_TLAALVDHCQGRK (UniProt Q96CW5),-0.034,-0.0661
TUT7_Q5VYS8_1008_FLNILDQVCIQCYK (UniProt Q5VYS8),0.124,-0.158
TRRAP_Q9Y4A5_852_TLELCVDNLQPDFLYDHIQPVR (UniProt Q9Y4A5),-0.0635,0.262
TUT4_Q5TAX3_309_LCLIHIENIQGAHK (UniProt Q5TAX3),0.198,0.149
TSTA3_Q13630_112_KVVSCLSTCIFPDK (UniProt Q13630),-0.1,-0.449
TTLL12_Q14166_418_WGEDNHWICK (UniProt Q14166),0.0687,0.0032
TXN2_Q99757_93_VVNSETPVVVDFHAQWCGPCK (UniProt Q99757),-1.34,-1.7
TRPM7_Q96QT4_200_ICTIGIAPWGVIENR (UniProt Q96QT4),0.326,0.211
TSC22D4_Q9Y3Q8_92_WTCVDVYERDLEPHSFGGLLEGIR (UniProt Q9Y3Q8),0.0479,-0.212
TRMT2A_Q8IZ69_580_AVAVDLFPQTPHCEMLILFER (UniProt Q8IZ69),0.118,-0.0925
TXNDC17_Q9BRA2_64_HISEGCVFIYCQVGEK (UniProt Q9BRA2),0.0209,0.13
TTI2_Q6NXR4_36_ILHCLARPEAR (UniProt Q6NXR4),0.126,-0.203
TXNDC9_O14530_94_ESENVVCHFYR (UniProt O14530),-0.0612,-0.0184
TUT4_Q5TAX3_64_QNDICIEK (UniProt Q5TAX3),-0.543,-0.0828
TXNDC5_Q8NBS9_247+254_VDCTQHYELCSGNQVR (UniProt Q8NBS9),-0.39,-0.44
TRRAP_Q9Y4A5_1868_LMTFAWPCLLSK (UniProt Q9Y4A5),-0.15,0.0883
TSR2_Q969E8_114_EMASCITQR (UniProt Q969E8),-0.531,-0.527
TUT4_Q5TAX3_20_KNVICEESK (UniProt Q5TAX3),-0.253,-0.439
TTC39C_Q8N584_87_MQLACDDLK (UniProt Q8N584),-0.289,-0.0251
TTF1_Q15361_708_LQENPESCLSIVR (UniProt Q15361),-0.276,-0.436

# An excerpt from further up, as a working copy:
Target,probe-labelled cysteine peptide fold change (10 µM),probe-labelled cysteine peptide fold change (50 µM)
TRRAP_Q9Y4A5_852_TLELCVDNLQPDFLYDHIQPVR (UniProt Q9Y4A5),-0.0635,0.262
TUT4_Q5TAX3_309_LCLIHIENIQGAHK (UniProt Q5TAX3),0.198,0.149
TSTA3_Q13630_112_KVVSCLSTCIFPDK (UniProt Q13630),-0.1,-0.449
TTLL12_Q14166_418_WGEDNHWICK (UniProt Q14166),0.0687,0.0032
TXN2_Q99757_93_VVNSETPVVVDFHAQWCGPCK (UniProt Q99757),-1.34,-1.7
TRPM7_Q96QT4_200_ICTIGIAPWGVIENR (UniProt Q96QT4),0.326,0.211
TSC22D4_Q9Y3Q8_92_WTCVDVYERDLEPHSFGGLLEGIR (UniProt Q9Y3Q8),0.0479,-0.212
TRMT2A_Q8IZ69_580_AVAVDLFPQTPHCEMLILFER (UniProt Q8IZ69),0.118,-0.0925

# Reference: the supplement of paper PMC12067093, “Discovery and optimisation of a covalent ligand for TRIM25 and its application to targeted protein ubiquitination” (Chemical Science, 2025)
